This experiment concerns the target T1, Staphylococcal nuclease domain-containing protein 1 (SND1), endogenous (mouse (endogenous in primary VSMCs)) (UniProt Q78PY7).
T1 sequence: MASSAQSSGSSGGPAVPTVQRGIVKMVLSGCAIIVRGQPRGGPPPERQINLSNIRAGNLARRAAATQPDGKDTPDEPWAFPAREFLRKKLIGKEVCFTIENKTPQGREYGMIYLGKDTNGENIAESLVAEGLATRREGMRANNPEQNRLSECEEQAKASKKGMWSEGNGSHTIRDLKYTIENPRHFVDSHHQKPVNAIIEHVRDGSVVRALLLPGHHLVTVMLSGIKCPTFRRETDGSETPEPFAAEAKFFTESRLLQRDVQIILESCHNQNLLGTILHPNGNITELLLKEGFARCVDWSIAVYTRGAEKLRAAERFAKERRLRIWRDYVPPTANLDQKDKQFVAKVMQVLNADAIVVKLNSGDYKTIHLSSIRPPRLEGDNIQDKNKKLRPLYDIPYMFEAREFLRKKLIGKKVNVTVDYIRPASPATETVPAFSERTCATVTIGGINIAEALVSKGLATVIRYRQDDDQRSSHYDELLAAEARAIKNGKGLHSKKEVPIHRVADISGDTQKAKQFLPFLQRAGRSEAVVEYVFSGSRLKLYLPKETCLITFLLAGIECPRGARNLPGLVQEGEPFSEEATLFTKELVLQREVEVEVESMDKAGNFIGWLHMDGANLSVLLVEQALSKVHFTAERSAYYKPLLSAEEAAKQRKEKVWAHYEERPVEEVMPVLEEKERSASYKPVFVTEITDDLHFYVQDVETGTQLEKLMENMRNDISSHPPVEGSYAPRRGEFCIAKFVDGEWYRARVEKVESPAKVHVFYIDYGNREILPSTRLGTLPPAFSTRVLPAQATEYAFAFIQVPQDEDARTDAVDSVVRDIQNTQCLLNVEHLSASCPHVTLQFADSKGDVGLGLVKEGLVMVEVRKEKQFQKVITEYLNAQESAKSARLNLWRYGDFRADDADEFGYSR
The experiment is described as follows: affinity purification with mass spectrometry; SND1 antibody on protein A/G agarose beads, 2 mg total lysate of primary VSMCs, 4 °C; eluate on SDS-PAGE, silver stained, bands excised for LC-MS/MS; IgG as negative control.

This passage reports binding results from paper PMC10817852, “Vascular injury activates the ELK1/SND1/SRF pathway to promote vascular smooth muscle cell proliferative phenotype and neointimal hyperplasia”.

These are yes or no findings as the source states them, for the method shown. In cells and extracts the contact can be indirect. A yes stands for co-enrichment or nearness to the bait. Other partners may have been found.

B1: Serum response factor (SRF), endogenous (protein, UniProt Q9JM73 1-504)
chain: MLPSQAGAAAALGRGSALGGNLNRTPTGRPGGGGGTRGANGGRVPGNGAGLGQSRLEREAAAAAAPTAGALYSGSEGDSESGEEEELGAERRGLKRSLSEMELGVVVGGPEAAAAAAGGYGPVSGAVSGAKPGKKTRGRVKIKMEFIDNKLRRYTTFSKRKTGIMKKAYELSTLTGTQVLLLVASETGHVYTFATRKLQPMITSETGKALIQTCLNSPDSPPRSDPTTDQRMSATGFEEPDLTYQVSESDSSGETKDTLKPAFTVTNLPGTTSTIQTAPSTSTTMQVSSGPSFPITNYLAPVSASVSPSAVSSANGTVLKSTGSGPVSSGGLMQLPTSFTLMPGGAVAQQVPVQAIHVHQAPQQASPSRDSSTDLTQTSSSGTVTLPATIMTSSVPTTVGGHMMYPSPHAVMYAPTSGLADGSLTVLNAFSQAPSTMQVSHSQVQEPGGVPQVFLTAPSGTVQIPVSAVQLHQMAVIGQQAGSSSNLTELQVVNLDATHSTKSE
Take B1: the binding entry was “binds”.
